Data reported in PubChem BioAssay AID1671190 (National Center for Advancing Translational Sciences (NCATS), 2021).
In all, about 580,000 compounds went through this assay and about 6,100 (1.1%) were called active. The shares of active, inactive and inconclusive entries below differ from those in the screen. The call rests on the fitted dose curve; in most records, active means well fitted inhibition curve with a large enough effect; inconclusive means small, poorly fitted or top-dose-only effect, or another doubt; inactive means no such curve, though single readings can be large or run the other way. Potencies beside an inconclusive call are fits to weak or partial responses and may not hold up.

Chains of the proteins cited; added tags and fusions are not shown.
UniProt P18054, whole entry, looked up: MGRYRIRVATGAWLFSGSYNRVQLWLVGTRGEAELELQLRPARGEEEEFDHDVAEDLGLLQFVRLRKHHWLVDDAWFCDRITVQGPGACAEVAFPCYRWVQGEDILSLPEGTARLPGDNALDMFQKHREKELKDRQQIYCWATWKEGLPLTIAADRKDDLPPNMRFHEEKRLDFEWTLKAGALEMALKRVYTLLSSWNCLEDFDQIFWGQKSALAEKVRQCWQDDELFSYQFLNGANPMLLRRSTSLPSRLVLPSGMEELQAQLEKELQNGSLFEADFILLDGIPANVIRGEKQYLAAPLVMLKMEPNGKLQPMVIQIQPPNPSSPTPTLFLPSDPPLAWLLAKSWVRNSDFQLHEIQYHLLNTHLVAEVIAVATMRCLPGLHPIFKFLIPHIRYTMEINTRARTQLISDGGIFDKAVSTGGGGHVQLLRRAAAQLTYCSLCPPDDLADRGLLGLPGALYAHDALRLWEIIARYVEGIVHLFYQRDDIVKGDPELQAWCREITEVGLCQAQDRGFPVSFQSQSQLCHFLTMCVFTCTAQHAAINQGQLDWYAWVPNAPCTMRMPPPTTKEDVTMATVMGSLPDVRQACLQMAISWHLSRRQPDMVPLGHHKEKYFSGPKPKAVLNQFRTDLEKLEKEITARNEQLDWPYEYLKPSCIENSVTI

These molecules were tested against Polyunsaturated fatty acid lipoxygenase ALOX12 (Homo sapiens) (UniProt P18054) (assay: Primary qHTS assay for inhibitors of human arachidonate 12S-lipoxygenase (ALOX12): Round 2). Conditions: purified 12hLO, xylenol orange hydroperoxide absorbance; series mostly up to 108 µM.
How it was run: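 Hydroperoxide product was detected by ferrous iron/xylenol orange as the 573 to 405 nm absorbance ratio. Arachidonic acid at 40 uM (final) was turned over for 30 min at room temperature by 150 nM human 12hLO, pH 7.0 Hepes buffer, after 15 min compound preincubation.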
Potency means the concentration at half of the fitted maximal effect.

SMILES | Potency
Cc1c(-c2ccccc2)nc2ccccc2c1C(=O)OCC(=O)Nc1ncc(C(F)(F)F)cc1Cl | inconclusive: 100 µM [inhibitor, partial curve, poor fit]
CCCC[n+]1c(C)sc2cc(OC)ccc21 | inconclusive: 50.1 µM [inhibitor, partial curve, poor fit]
CCn1c(SCC(=O)Nc2ccc(OC)c(OC)c2)nc2c(c1=O)SCC2 | inactive
Clc1nc2ccccc2cc1-c1nnn(-c2ccccc2Br)n1 | inconclusive: 79.4 µM [inhibitor, partial curve, poor fit]
CC1CCN(C(=O)C2CCN(C(=O)c3ccc4ccccc4n3)CC2)CC1 | inconclusive: 28.2 µM [inhibitor, partial curve, poor fit]
COCc1nncn1C1CCN(C(=O)c2ccc(C)c(C)c2)CC1 | inactive
COCCNC(=S)Nc1ccccn1 | inconclusive: 50.1 µM [inhibitor, partial curve, poor fit]
COc1ccc2cc(C(=O)Nc3ccccn3)c(C)nc2c1 | inconclusive: 100 µM [inhibitor, single point]
O=C(CN1C(=O)c2ccccc2S1(=O)=O)Nc1ncc([N+](=O)[O-])s1 | inconclusive: 50.1 µM [inhibitor, partial curve, poor fit]
CCCCCCCCCCCCCCCCn1cc[n+](C)c1 | inconclusive: 44.7 µM [inhibitor, partial curve, poor fit]
CCOc1ccc(C(=O)OCC(=O)N(Cc2ccccc2)Cc2ccccc2)cc1OC | inactive
CCOC(=O)N1CCC(NC(=O)c2ccc(Cl)cc2)CC1 | inconclusive: 126 µM [inhibitor, single point]
Cc1c(C(=O)Nc2ccccc2)sc2nc[nH]c(=O)c12 | inactive
O=C1NCc2ccccc2CC12CCN(Cc1cccc(OC(F)(F)F)c1)C2 (centres undefined) | inconclusive: 39.8 µM [inhibitor, partial curve]
Cc1ccc(-c2cc(C(=O)N3CCOCC3)c3ccccc3n2)s1 | inconclusive: 126 µM [inhibitor, partial curve, poor fit]
Cn1c(SCC(=O)N2CCN(c3ccccc3)CC2)nnc1-c1ccco1 | inactive
CCN(CC)C(=O)c1sc(N)c(C(=O)OC(C)C)c1C | inconclusive: 89.1 µM [inhibitor, partial curve, poor fit]
CCn1c2ccccc2c2cc(NC(=O)CSc3nnc(C4CC4)n3Cc3ccco3)ccc21 | inconclusive: 50.1 µM [inhibitor, partial curve, poor fit]
Cc1ccc(NC(=O)Cn2c(O)c(N=NS(=O)(=O)c3ccc(C)cc3)c3ccccc32)cc1 | active: 14.1 µM
O=C(NC(c1ccc(F)cc1)c1cnccn1)C1CCN(CCOc2ccc(Cl)cc2Cl)CC1 (centres undefined) | inconclusive: 50.1 µM [inhibitor, partial curve, poor fit]
Cc1ccc(-n2c(C3CCN(C(=O)COc4cccc(C)c4)CC3)n[nH]c2=O)cc1 | inconclusive: 25.1 µM [inhibitor, full curve]
N/C(=N\OC(=O)c1ccc(Cl)cc1)c1ccccn1 | inactive
COc1cccc(-c2c(NC(=O)c3ccco3)oc3ccc(Cl)cc3c2=O)c1 | inconclusive: 39.8 µM [inhibitor, partial curve, poor fit]

SMILES | Potency
Cc1cc(C)c(NC(=O)Cn2ccn3nc4c(c3c2=O)CCCC4)c(C)c1 | inconclusive: 63.1 µM [inhibitor, single point]
COc1cccc(/C=C(\C#N)C(=O)Nc2ccccc2C(=O)O)c1OC | inconclusive: 50.1 µM [inhibitor, partial curve, poor fit]
CNc1nc(C(=O)N2CCC(c3nccn3Cc3ccncc3)CC2)cs1 | inconclusive: 39.8 µM [inhibitor, partial curve]
O=C1OCCC/C1=C\c1ccc2c(c1)OCO2 | inconclusive: 28.2 µM [inhibitor, partial curve, poor fit]
Cc1ccccc1NC(=O)CSC(N)=O | inactive
O=C(C[C@H]1C/C=C\CC[C@@H](Cc2ccc(F)cc2)C(=O)O[C@H](c2ccccc2)CNC1=O)N[C@H](CO)Cc1ccccc1 | inconclusive: 70.8 µM [inhibitor, partial curve, poor fit]
COc1cc(OC)cc(C(=O)NCCSCc2ccco2)c1 | inconclusive: 7.08 µM [inhibitor, partial curve]
Cc1cc2ccccc2n1CC(=O)NCc1ccc(C(N)=O)cc1 | inactive
O=C(/C=C/c1ccco1)N1CCN(S(=O)(=O)c2cccs2)CC1 | inconclusive: 50.1 µM [inhibitor, partial curve, poor fit]
CC(=O)N1CCOc2cc(S(=O)(=O)Nc3c(C)cccc3C(C)C)c(Cl)cc21 | inconclusive: 126 µM [inhibitor, partial curve, poor fit]
O=C(Cc1ccc(Cl)cc1)N1CCc2ccccc2C1 | inactive
CC(C)C(=O)NC(c1cccc([N+](=O)[O-])c1)c1ccc2cccnc2c1O (centres undefined) | inconclusive: 44.7 µM [inhibitor, partial curve, poor fit]
CCOC(=O)C1=C(C)N(c2ccccc2)C(=O)/C1=C\c1ccc(O)c(OC)c1 | inconclusive: 39.8 µM [inhibitor, partial curve, poor fit]
N#Cc1cccc(C(=O)N2CCOCCNC(=O)[C@@H]3CCC[C@@H]32)c1 | inactive
Cc1cc(C)n(S(=O)(=O)c2cc(C(=O)O)c(Cl)cc2Cl)n1 | inactive
OCC1(Cc2ccc(F)cc2)CCCN(Cc2ccc(F)cc2Cl)C1 (centres undefined) | inconclusive: 89.1 µM [inhibitor, partial curve, poor fit]
Cc1c(Cl)cccc1NC(=O)CCc1ncc(-c2ccccc2)o1 | inactive
CCOC(=O)CCCN1C(=O)CCn2nc(-c3cn(C)c4ccccc34)cc21 | inconclusive: 89.1 µM [inhibitor, partial curve, poor fit]
COc1ccc(CN2C(=O)c3cccnc3C2=O)cc1S(=O)(=O)N1CCCCC1 | inactive
O=C(N/N=C/c1ccc(-c2ccc(Cl)c(C(=O)O)c2)o1)c1cc2c(ccc3ccccc32)o1 | active: 39.8 µM
COc1ccc(NC(=O)C(CCSC)NC(N)=O)cc1NS(=O)(=O)c1ccc(F)cc1 (centres undefined) | inconclusive: 3.55 µM [inhibitor, full curve, poor fit]
COc1cccc(Nc2ncc3c(n2)C(C)(C(=O)Nc2ccc(OC)nc2)CC3)c1 (centres undefined) | inactive
CCC1CCc2nc3ccc(Cl)cc3c(-c3ccccc3F)c2C1 (centres undefined) | inactive

SMILES | Potency
CCCCN(Cc1ccccc1)S(=O)(=O)c1cc(Br)cc2c1N(C(C)=O)CC2 | inconclusive: 126 µM [inhibitor, partial curve, poor fit]
COc1ccc(CC(=O)N2N=C(c3ccccc3)CC2(O)C(F)(F)F)cc1 (centres undefined) | inconclusive: 89.1 µM [inhibitor, partial curve, poor fit]
COc1ccc(C(C)(NC(C)=O)c2nc(-c3cc(F)cc(F)c3)cs2)cc1 (centres undefined) | inconclusive: 44.7 µM [inhibitor, partial curve, poor fit]
CCCn1c(=O)n(CC(=O)Nc2ccccc2OCC)c(=O)c2c1nc(C)n2CCOC | inactive
COc1ccc(NC(=O)CCN2CCN(S(=O)(=O)c3cc(Cl)ccc3OC)CC2)cc1 | inconclusive: 28.2 µM [inhibitor, partial curve, poor fit]
CCCn1c(=O)c2ccccc2n(CC(=O)N(CC)c2cccc(C)c2)c1=O | inconclusive: 7.94 µM [inhibitor, full curve]
Nc1nc2c(s1)C(c1ccc(F)cc1F)CC(=O)N2 (centres undefined) | active: 12.6 µM
CCCCNCc1ccco1 | inactive
Fc1ccccc1-c1nnc(SCc2coc(-c3cccs3)n2)n1C1CC1 | inconclusive: 10 µM [inhibitor, full curve, poor fit]
COc1ccc(OC)c(C=NN=Cc2cc(OC)ccc2OC)c1 | inactive
CC(=O)Nc1ccc(S(=O)(=O)Nc2ccc3c(c2)N(S(C)(=O)=O)CC3)cc1 | inactive
Cc1cc(N2CCCCCC2)nc2ccccc12 | inconclusive: 0.112 µM [inhibitor, full curve, poor fit]
O=C1ON=C(c2ccccc2)/C1=C\c1ccco1 | active: 6.31 µM
CCOC(=O)CNC(=O)c1cnc(Nc2ccccc2OC)c2ccccc12 | inconclusive: 39.8 µM [inhibitor, single point]
COC(=O)c1ccc(N2CC3CNC(=O)C2(C(=O)OC)N3C)cc1 (centres undefined) | inconclusive: 100 µM [inhibitor, single point]
Cn1cnc2c1c(=O)n(CCCSc1nnc(-c3ccccc3F)o1)c(=O)n2C | inactive
O=C(Nc1cccc(-n2cnnn2)c1)c1ccc(Cl)cc1Cl | inactive
CCCn1nc(C(=O)Nc2sc3c(c2C(N)=O)CCC3)c2ccccc2c1=O | inactive
O=C1CCN(Cc2ccccc2)CCN1[C@H](CSc1ccccc1)c1ccccc1 | inconclusive: 44.7 µM [inhibitor, partial curve, poor fit]
Cc1ccc(NC(=O)c2nn(C)c(=O)c3ccccc23)c(O)c1 | inactive
CS/C(N)=N/N=C/c1c(O)ccc2ccccc12 | inconclusive: 70.8 µM [inhibitor, single point]
COc1cc(NCC(=O)NC(C)(C#N)C(C)C)c(OC)cc1Cl (centres undefined) | inconclusive: 141 µM [inhibitor, single point]
S=c1[nH]nc(COc2ccccc2)n1/N=C/c1cccnc1 | inconclusive: 50.1 µM [inhibitor, partial curve, poor fit]

An excerpt of these results, with each value named.
Cc1ccccc1NC(=O)CSC(N)=O
  Potency: inactive
CC(C)C(=O)NC(c1cccc([N+](=O)[O-])c1)c1ccc2cccnc2c1O (centres undefined)
  Potency: inconclusive: 44.7 µM [inhibitor, partial curve, poor fit]
Cc1c(Cl)cccc1NC(=O)CCc1ncc(-c2ccccc2)o1
  Potency: inactive
COc1ccc(NC(=O)CCN2CCN(S(=O)(=O)c3cc(Cl)ccc3OC)CC2)cc1
  Potency: inconclusive: 28.2 µM [inhibitor, partial curve, poor fit]
